Data from patent US20240294644A1.
Results are given in words; binding and its absence hold for the method and conditions named. Some results given as binding are weak or reduced against the parent protein; the word gives no strength.

Columns and labels:
[1] = biological target: T1, VTCN1 IgV domain only construct expressed on 293 cells (human) (UniProt Q7Z7D3); assay: FACS on 293-VTCN1-IgV domain expressing cells
T1 sequence: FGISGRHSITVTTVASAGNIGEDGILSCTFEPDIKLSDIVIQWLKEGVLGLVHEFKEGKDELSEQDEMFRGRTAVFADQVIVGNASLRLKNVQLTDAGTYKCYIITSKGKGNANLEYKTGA

[2] = biological target: human VTCN1 expressed on cells (293-VTCN1 cells; SKBR3, MX-1 and ZR-75-1 cells that express it naturally) (human) (UniProt Q7Z7D3); assay: flow cytometry of serially diluted antibody on SKBR3 cells (natural VTCN1), dye-labelled secondary antibody, MFI
[3] = biological target: human VTCN1 expressed on cells (293-VTCN1 cells; SKBR3, MX-1 and ZR-75-1 cells that express it naturally) (human) (UniProt Q7Z7D3); assay: flow cytometry of serially diluted antibody on 293-humanVTCN1 cells, dye-labelled secondary antibody, MFI
[4] = biological target: cynomolgus monkey VTCN1 expressed on 293 cells (cynomolgus monkey); assay: flow cytometry, titration 0.03-100 nM on 293-cynoVTCN1 cells
[5] = biological target: cynomolgus monkey VTCN1 expressed on 293 cells (cynomolgus monkey); assay: FACS of serially diluted antibodies on 293-cynoVTCN1 cells
[6] = biological target: cynomolgus monkey VTCN1 expressed on 293 cells (cynomolgus monkey); assay: flow cytometry of serially diluted antibody on 293-cynoVTCN1 cells, dye-labelled secondary antibody, MFI
[7] = biological target: human VTCN1 expressed on cells (293-VTCN1 cells; SKBR3, MX-1 and ZR-75-1 cells that express it naturally) (human) (UniProt Q7Z7D3); assay: flow cytometry, titration 0.03-100 nM on 293-human VTCN1 and SKBR3 cells
[8] = biological target: T2, mouse VTCN1 expressed on 293 cells (mouse) (UniProt Q7TSP5); assay: FACS of serially diluted antibodies on 293 mouseVTCN1 cells
T2 sequence (looked up): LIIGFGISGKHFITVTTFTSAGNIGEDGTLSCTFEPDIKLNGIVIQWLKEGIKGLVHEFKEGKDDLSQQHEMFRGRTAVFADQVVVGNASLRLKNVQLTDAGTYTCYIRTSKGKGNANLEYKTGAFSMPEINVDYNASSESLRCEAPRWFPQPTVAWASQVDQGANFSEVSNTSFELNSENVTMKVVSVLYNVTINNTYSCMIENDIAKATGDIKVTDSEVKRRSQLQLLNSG

[9] = biological target: T2, mouse VTCN1 expressed on 293 cells (mouse); assay: flow cytometry, titration 0.03-100 nM on 293-mouse VTCN1 cells
[10] = biological target: human VTCN1 expressed on cells (293-VTCN1 cells; SKBR3, MX-1 and ZR-75-1 cells that express it naturally) (human) (UniProt Q7Z7D3); assay: FACS of serially diluted antibodies on 293-humanVTCN1 and SKBR3 cells
[11] = biological target: T2, mouse VTCN1 expressed on 293 cells (mouse); assay: flow cytometry of serially diluted antibody on 293-mouseVTCN1 cells, dye-labelled secondary antibody, MFI
[12] = biological target: cynomolgus monkey VTCN1 expressed on 293 cells (cynomolgus monkey); assay: flow cytometry on 293-VTCN1 (monkey) cells

Measured: binding

B1: 12B5_44B1 (antibody, V domains shown)
VH: QVQLVQSGAEVKKPGSSMKVSCKASGDTFSSYAISWVRQAPGQGLEWMAGIIPVFGTAHNAQKFQGRVTITADKSTSTAYMELSSLRSEDTAVYYCTRGGPYFDYWGQGTLVTVSS
VL: EIVMTQSPATLSVSPGERAALSCRASQSVSSNLAWYQQKPGQAPRLLIYGVSTRATGIPDRFNGSGSGTEFTLTISSLQSEDFGAYYCQQYKKWPFIFGPGTKLEIK
not listed: [12]
binds: all other assays above

B2: 4C7_63A1 (antibody, V domains shown)
VH: QVQLQESGPGLVKPSGTLSLTCAVSGGSISSSNWWSWVRQPPGKGLEAIGEIYHSGNTNYNPSLKSRVTISVDKSKNQFSLKLSSVTAADTAIYYCARDGYSSGWYWGYFDYWGQGTLVTVSS
VL: EIVMTQSPATLSVSPGERATLSCRASQSVNSNLAWYQQKPGQAPWLLIYGASTRATGIPARFSGSGSGTEFTLTISSLQSEDFAVYYCQQYNHWPYTFGQGTKLEIK
binds: [1] | [4] | [5] | [6]

B3: hu6D9_57A5 (antibody, V domains shown)
VH: QVQLVESGGGVVQPGRSLRLSCAVSGFSLTSYGVQWVRQAPGKGLEWLAVIWSSGSTDYNAAFLSRLTISKDNSKNTVYFQMNSLRAEDTAVYYCARDVTTIVEGFAHWGQGTLVTVSS
VL: DIQMTQSPSSLSASVGDRVTITCKASEKVGTYVSWYQQKPGKAPKLLIYGASNRYTGVPSRFSGSGSGTDFTLTISSLQPEDFATYYCGQTYSYPFTFGQGTKLEIK
binds: [6]

B4: 7C8 (antibody, V domains shown)
VH: QVQLQESGPGLVKPSETLSLTCAVSGYSISSGYYWGWIRQPPGKGLEWIGSIYHSGTTYYNPSLKSRVTISVDTSKNQFSLKLNSVTAADTAVYYCATYSSGWYFYFDYWGQGTLVTVSS
VL: DIQLTQSPSFLSASVGDRVTITCRASQGISSYLAWYQQKPGKAPKLLIYVASTLQSGVPSRFSGSGSGTEFTLTISSLQPEDFATYYCQQLNSYPITFGQGTRLEIK
binds: [12]
